Results are given in words; binding and its absence hold for the method and conditions named. In cells and extracts the contact can be indirect. Some binding calls cover weakened binding; strength is not graded here.
Tests used:
[1] = molecular target: HERC2 protein fused with the Flag epitope (Flag-HERC2) (human) (UniProt O95714); experiment: pull-down; Lysates (NP40 buffer) of HEK293T cells transfected with Flag-HERC2 or Flag-CTL, incubated with DYKDDDDK Fab-Trap agarose 2 h at 4 °C, five washes, immunoblot of retained endogenous proteins; cells untreated, or 500 µM H2O2 for 3 or 6 h (less USP20 retained)
[2] = molecular target: HERC2 protein fused with the Flag epitope (Flag-HERC2) (human) (UniProt O95714); experiment: pull-down; As a1 but in U2OS cells transfected with Flag-HERC2 or Flag-CTL; DYKDDDDK Fab-Trap agarose, immunoblot

Amino acid sequences for entries named in this document (tags omitted).
UniProt O95714: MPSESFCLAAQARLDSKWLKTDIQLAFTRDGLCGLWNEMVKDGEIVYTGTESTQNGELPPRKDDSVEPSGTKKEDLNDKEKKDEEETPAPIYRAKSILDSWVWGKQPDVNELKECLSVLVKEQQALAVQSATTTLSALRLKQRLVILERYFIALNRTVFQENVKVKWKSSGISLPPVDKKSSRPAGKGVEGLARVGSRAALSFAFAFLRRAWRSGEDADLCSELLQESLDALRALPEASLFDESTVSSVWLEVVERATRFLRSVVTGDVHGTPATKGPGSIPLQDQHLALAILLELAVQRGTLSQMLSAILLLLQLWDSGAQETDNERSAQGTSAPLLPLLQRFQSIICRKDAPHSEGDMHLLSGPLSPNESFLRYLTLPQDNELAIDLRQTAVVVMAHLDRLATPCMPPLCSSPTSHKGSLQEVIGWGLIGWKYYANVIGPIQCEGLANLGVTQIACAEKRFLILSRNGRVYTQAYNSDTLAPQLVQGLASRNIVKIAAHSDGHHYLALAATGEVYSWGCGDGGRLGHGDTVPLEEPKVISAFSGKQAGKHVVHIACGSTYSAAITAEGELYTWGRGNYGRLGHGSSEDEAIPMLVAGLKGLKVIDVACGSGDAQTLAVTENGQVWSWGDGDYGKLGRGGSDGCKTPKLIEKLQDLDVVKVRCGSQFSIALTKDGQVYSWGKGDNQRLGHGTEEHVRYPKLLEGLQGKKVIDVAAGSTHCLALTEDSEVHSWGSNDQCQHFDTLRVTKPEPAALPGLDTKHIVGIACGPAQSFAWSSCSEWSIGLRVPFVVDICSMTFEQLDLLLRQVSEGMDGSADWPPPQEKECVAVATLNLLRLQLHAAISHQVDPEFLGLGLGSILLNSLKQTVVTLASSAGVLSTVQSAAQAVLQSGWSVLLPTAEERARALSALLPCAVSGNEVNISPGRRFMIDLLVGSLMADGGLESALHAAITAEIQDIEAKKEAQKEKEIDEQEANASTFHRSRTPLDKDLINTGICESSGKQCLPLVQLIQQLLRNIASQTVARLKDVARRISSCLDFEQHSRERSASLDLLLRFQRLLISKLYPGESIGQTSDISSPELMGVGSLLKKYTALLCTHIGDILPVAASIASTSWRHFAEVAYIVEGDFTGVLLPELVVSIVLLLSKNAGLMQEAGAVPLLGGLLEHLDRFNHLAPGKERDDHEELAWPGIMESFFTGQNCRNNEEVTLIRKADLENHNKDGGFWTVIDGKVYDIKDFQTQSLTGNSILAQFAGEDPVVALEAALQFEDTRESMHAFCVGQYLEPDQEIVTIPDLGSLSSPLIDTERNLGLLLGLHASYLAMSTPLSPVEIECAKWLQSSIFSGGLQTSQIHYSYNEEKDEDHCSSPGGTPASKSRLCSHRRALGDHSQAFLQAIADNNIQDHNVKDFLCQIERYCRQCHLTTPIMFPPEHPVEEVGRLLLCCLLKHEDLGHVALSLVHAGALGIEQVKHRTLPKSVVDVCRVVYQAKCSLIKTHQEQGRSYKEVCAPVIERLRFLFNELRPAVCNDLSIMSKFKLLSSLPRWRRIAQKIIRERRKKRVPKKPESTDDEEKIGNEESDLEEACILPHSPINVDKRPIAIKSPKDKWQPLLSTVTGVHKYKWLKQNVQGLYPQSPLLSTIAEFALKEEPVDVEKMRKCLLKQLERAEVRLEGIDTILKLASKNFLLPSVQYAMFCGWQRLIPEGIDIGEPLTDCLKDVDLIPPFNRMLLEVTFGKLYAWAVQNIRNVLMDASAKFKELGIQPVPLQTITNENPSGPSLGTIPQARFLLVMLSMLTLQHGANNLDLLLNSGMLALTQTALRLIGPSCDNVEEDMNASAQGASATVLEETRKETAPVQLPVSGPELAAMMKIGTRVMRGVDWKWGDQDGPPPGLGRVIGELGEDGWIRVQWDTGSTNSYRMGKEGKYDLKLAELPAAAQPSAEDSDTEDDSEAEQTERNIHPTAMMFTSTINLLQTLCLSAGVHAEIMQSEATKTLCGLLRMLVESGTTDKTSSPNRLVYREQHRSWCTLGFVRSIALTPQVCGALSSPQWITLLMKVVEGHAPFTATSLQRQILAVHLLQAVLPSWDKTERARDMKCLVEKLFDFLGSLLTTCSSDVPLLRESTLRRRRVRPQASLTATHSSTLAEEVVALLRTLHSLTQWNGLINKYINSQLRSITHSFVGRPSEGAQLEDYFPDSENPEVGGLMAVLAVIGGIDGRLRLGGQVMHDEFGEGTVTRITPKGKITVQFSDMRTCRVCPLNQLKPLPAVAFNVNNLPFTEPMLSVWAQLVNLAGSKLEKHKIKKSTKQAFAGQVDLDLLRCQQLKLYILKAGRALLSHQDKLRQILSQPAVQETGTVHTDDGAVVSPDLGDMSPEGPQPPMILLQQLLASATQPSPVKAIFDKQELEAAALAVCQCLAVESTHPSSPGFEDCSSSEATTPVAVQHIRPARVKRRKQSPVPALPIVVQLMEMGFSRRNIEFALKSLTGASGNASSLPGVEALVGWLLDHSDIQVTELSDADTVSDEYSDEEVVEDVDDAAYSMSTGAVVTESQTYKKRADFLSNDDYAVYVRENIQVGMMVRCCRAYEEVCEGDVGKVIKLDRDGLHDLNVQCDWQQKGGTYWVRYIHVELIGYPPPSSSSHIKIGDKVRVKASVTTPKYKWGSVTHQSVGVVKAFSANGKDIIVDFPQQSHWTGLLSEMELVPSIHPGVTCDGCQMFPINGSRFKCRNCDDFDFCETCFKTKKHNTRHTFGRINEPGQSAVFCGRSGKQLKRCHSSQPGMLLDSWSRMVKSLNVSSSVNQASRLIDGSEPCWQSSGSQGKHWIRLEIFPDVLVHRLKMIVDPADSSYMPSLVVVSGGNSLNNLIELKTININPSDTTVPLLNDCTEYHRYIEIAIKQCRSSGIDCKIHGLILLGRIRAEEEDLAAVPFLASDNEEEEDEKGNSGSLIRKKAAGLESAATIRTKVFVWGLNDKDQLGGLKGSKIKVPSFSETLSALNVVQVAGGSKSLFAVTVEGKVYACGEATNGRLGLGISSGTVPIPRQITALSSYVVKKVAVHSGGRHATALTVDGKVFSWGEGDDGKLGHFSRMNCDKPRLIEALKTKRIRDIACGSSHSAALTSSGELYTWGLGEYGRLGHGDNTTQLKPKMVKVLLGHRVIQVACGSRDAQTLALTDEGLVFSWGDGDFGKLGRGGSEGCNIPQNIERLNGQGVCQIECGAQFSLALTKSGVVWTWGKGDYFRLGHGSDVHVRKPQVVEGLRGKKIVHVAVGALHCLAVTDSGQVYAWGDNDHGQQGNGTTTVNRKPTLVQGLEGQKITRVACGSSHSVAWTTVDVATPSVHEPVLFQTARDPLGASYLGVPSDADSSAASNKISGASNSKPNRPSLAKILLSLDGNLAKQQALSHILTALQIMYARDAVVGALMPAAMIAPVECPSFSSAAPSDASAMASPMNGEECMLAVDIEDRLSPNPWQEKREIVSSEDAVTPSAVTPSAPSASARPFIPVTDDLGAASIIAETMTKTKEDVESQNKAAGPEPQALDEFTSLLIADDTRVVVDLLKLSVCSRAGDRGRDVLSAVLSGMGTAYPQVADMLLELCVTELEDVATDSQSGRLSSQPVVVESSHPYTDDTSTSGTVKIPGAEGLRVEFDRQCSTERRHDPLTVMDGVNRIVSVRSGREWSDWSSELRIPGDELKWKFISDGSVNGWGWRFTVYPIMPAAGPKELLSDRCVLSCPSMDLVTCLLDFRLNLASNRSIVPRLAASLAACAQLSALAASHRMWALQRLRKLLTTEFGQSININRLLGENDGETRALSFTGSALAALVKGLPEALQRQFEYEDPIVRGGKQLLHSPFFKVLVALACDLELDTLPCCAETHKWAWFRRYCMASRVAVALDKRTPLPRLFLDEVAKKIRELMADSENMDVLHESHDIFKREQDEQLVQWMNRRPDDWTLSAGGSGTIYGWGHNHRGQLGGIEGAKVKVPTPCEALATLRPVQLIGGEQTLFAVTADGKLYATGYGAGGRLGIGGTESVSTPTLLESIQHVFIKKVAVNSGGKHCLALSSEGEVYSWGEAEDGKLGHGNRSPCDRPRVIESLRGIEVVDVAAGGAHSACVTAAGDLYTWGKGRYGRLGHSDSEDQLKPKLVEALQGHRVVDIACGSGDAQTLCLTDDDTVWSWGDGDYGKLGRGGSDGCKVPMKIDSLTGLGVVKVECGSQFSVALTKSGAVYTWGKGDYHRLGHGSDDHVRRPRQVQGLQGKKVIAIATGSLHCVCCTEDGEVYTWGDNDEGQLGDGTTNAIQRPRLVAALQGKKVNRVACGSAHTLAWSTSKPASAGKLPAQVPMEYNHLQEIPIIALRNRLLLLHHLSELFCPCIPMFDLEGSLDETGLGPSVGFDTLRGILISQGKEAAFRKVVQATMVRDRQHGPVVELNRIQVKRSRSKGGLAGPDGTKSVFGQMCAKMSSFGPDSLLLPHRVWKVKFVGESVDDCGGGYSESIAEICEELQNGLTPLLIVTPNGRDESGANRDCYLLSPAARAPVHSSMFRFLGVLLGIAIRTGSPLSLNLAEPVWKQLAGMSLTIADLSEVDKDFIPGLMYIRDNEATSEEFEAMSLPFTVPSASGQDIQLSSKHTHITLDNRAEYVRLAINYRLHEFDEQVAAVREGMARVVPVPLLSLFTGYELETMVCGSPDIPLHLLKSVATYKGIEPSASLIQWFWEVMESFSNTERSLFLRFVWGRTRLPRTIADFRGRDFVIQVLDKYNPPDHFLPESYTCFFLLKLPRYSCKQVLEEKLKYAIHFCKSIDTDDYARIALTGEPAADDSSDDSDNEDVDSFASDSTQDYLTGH

Which binding [1] does the source give for “deubiquitylating enzyme USP20 (from UniProt Q9Y2K6 1-914)” here?
The binding was “binds”.

What about the binding [2] of the same substance?
The binding was “binds”.
